Results are given in words; binding and its absence hold for the method and conditions named. Some entries that bind do so weakly or less than the wild type. Sequences can lack the tags named with a protein.
Key:
Fc-HRS(2-60) (human) [1] = target: T1, Fc-HRS(2-60) (human) (UniProt P12081); experiment: SPR: 50 nM human NRP2 as analyte over immobilized Fc-HRS(2-60) [panel A]
T1 sequence: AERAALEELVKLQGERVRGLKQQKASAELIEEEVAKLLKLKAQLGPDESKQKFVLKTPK

Fc-HRS(2-60) (human) [2] = target: T1, Fc-HRS(2-60) (human); experiment: SPR; Fc-HRS(2-60) immobilized, 50 nM analyte
Fc-HRS(2-60) (human) [3] = target: T1, Fc-HRS(2-60) (human); experiment: SPR: 20 nM NRP2 as analyte over immobilized Fc-HRS(2-60) [panel A]
Fc-HRS(2-60) (human) [4] = target: T1, Fc-HRS(2-60) (human); experiment: SPR co-injection: Fc-HRS(2-60) (2000 nM) captured on immobilized 4D4, then 200 nM NRP2 [panel C]
Fc-HRS(2-60) (human) [5] = target: T1, Fc-HRS(2-60) (human); experiment: SPR (ProteOn XPR36): 50 nM NRP2 as analyte over immobilized Fc-HRS(2-60)
Fc-HRS(2-60) (human) [6] = target: T1, Fc-HRS(2-60) (human); experiment: SPR; Fc-HRS(2-60) immobilized, 50 nM NRP2 analyte
Fc-HRS(2-60) (human) [7] = target: T1, Fc-HRS(2-60) (human); experiment: SPR; Fc-HRS(2-60) immobilized, 20 nM NRP2 analyte
Fc-HRS(2-60) (human) [8] = target: T1, Fc-HRS(2-60) (human); experiment: SPR: 4D4 immobilized; analyte a pre-incubated mixture of 100 nM Fc-HRS(2-60) and 200 nM NRP2 [panel B]
Fc-HRS(2-60) (human) [9] = target: T1, Fc-HRS(2-60) (human); experiment: SPR: 20 nM NRP2 over immobilized Fc-HRS(2-60); running buffer 50 mM HEPES, 300 mM NaCl, 0.005% Tween20, pH 7.4; analyte supplemented with 5 mM of the named additive [panel B]
Fc-HRS(2-60) (human) [10] = target: T1, Fc-HRS(2-60) (human); experiment: SPR: 20 nM NRP2 over immobilized Fc-HRS(2-60); running buffer 50 mM HEPES, 300 mM NaCl, 0.005% Tween20, pH 7.4; analyte supplemented with 5 mM of the named additive [panel A]
Fc-HRS(2-60) (human) [11] = target: T1, Fc-HRS(2-60) (human); experiment: SPR co-injection; antibody immobilized, 2000 nM Fc-HRS(2-60) then 200 nM NRP2
Fc-HRS(2-60) (human) [12] = target: T1, Fc-HRS(2-60) (human); experiment: SPR; Fc-HRS(2-60) immobilized
Fc-HRS(2-60) (human) [13] = target: T1, Fc-HRS(2-60) (human); experiment: SPR co-injection: Fc-HRS(2-60) (2000 nM) captured on immobilized 12H6, then 200 nM NRP2 [panel A]
Fc-HRS(2-60) (human) [14] = target: T1, Fc-HRS(2-60) (human); experiment: SPR co-injection: Fc-HRS(2-60) (2000 nM) captured on immobilized 13E9, then 200 nM NRP2 [panel D]
Fc-HRS(2-60) (human) [15] = target: T1, Fc-HRS(2-60) (human); experiment: SPR; Fc-HRS(2-60) immobilized; calcium-free running buffer, 5 mM CaCl2, MgCl2, ZnCl2 or EDTA added to the analyte
Fc-HRS(2-60) (human) [16] = target: T1, Fc-HRS(2-60) (human); experiment: SPR; antibody immobilized

Measured: binding

B1: NRP2-Fc (R&D Systems #2215-N2) (Fc fusion, human, UniProt O60462 23-864, looked up, not shown: a dimerising Fc or GST)
chain: QPDPPCGGRLNSKDAGYITSPGYPQDYPSHQNCEWIVYAPEPNQKIVLNFNPHFEIEKHDCKYDFIEIRDGDSESADLLGKHCGNIAPPTIISSGSMLYIKFTSDYARQGAGFSLRYEIFKTGSEDCSKNFTSPNGTIESPGFPEKYPHNLDCTFTILAKPKMEIILQFLIFDLEHDPLQVGEGDCKYDWLDIWDGIPHVGPLIGKYCGTKTPSELRSSTGILSLTFHTDMAVAKDGFSARYYLVHQEPLENFQCNVPLGMESGRIANEQISASSTYSDGRWTPQQSRLHGDDNGWTPNLDSNKEYLQVDLRFLTMLTAIATQGAISRETQNGYYVKSYKLEVSTNGEDWMVYRHGKNHKVFQANNDATEVVLNKLHAPLLTRFVRIRPQTWHSGIALRLELFGCRVTDAPCSNMLGMLSGLIADSQISASSTQEYLWSPSAARLVSSRSGWFPRIPQAQPGEEWLQVDLGTPKTVKGVIIQGARGGDSITAVEARAFVRKFKVSYSLNGKDWEYIQDPRTQQPKLFEGNMHYDTPDIRRFDPIPAQYVRVYPERWSPAGIGMRLEVLGCDWTDSKPTVETLGPTVKSEETTTPYPTEEEATECGENCSFEDDKDLQLPSGFNCNFDFLEEPCGWMYDHAKWLRTTWASSSSPNDRTFPDDRNFLRLQSDSQREGQYARLISPPVHLPRSPVCMEFQYQATGGRGVALQVVREASQESKLLWVIREDQGGEWKHGRIILPSYDMEYQIVFEGVIGKGRSGEIAIDDIRISTDVPLENCMEPISAFAGENFKVDIPEIHEREGYEDEIDDEYEVDWSNSSSATSGSGAPSTDKEKSWLYTLDP
binds: all assays above
